Some results were stated once for a whole list of compounds, not compound by compound.
tested on: zinnia, piemarker, green bristlegrass or barnyard grass; assay: Herbicidal activity screen, post-emergence spray, result stated jointly for four weeds; format: in vivo; conditions: application dose 600 g a.i./hm^2; after emergence

Compound | control effects on zinnia, piemarker, green bristlegrass or barnyard grass
Cn1nnnc1N(C(=O)/C=C/c1ccccc1)C(=O)c1ccc(Cl)cc1Cl [Compound 1-15] | greater than or equal to 90%
COCCOc1c(S(C)(=O)=O)ccc(C(=O)N(C(=O)C2=CCCCC2)c2nnnn2C)c1C [Compound 2-19] | greater than or equal to 90%
COCc1c(S(C)(=O)=O)ccc(C(=O)N(C(=O)C2=CCCCC2)c2nnnn2C)c1Cl [Compound 2-103] | greater than or equal to 90%
Cc1c(C(=O)N(C(=O)C2=CCCC2)c2nnnn2C)ccc(S(C)(=O)=O)c1OCC(F)(F)F [Compound 2-15] | greater than or equal to 90%
Cn1nnnc1N(C(=O)/C=C/c1ccccc1)C(=O)c1ccc(C(F)(F)F)cc1S(C)(=O)=O [Compound 1-1] | greater than or equal to 90%
Cn1nnnc1N(C(=O)C1=CCCCC1)C(=O)c1ccc(C(F)(F)F)cc1S(C)(=O)=O [Compound 2-265] | greater than or equal to 90%
CCOc1c(S(C)(=O)=O)ccc(C(=O)N(C(=O)C2=CCCCC2)c2nnnn2C)c1C [Compound 2-7] | greater than or equal to 90%
Cc1c(C(=O)N(C(=O)C2=CCCCC2)c2nnnn2C)ccc(S(C)(=O)=O)c1OCC(F)(F)F [Compound 2-13] | greater than or equal to 90%
Cn1nnnc1N(C(=O)C1=CCCCC1)C(=O)c1ccc(Cl)cc1S(C)(=O)=O [Compound 2-115] | greater than or equal to 90%
Cn1nnnc1N(C(=O)/C=C/c1ccc2c(c1)OCO2)C(=O)c1ccc(C(F)(F)F)cc1S(C)(=O)=O [Compound 1-8] | greater than or equal to 90%
Cc1c(S(C)(=O)=O)ccc(C(=O)N(C(=O)C2=CCCCC2)c2nnnn2C)c1Cl [Compound 2-97] | greater than or equal to 90%
Cn1nnnc1N(C(=O)/C=C/c1ccccc1)C(=O)c1ccc(S(C)(=O)=O)c(COCC2CCCO2)c1Cl (stereo not shown) [Compound 1-41] | greater than or equal to 90%
CCOc1c(S(C)(=O)=O)ccc(C(=O)N(C(=O)C2=CCCC2)c2nnnn2C)c1C [Compound 2-9] | greater than or equal to 90%
Cc1c(C(=O)N(C(=O)/C=C/c2ccccc2)c2nnnn2C)ccc(S(C)(=O)=O)c1OCC1CCCO1 (stereo not shown) [Compound 1-100] | greater than or equal to 90%
Cc1c(S(C)(=O)=O)ccc(C(=O)N(C(=O)/C=C/c2ccccc2)c2nnnn2C)c1Cl [Compound 1-19] | greater than or equal to 90%
COCc1c(S(C)(=O)=O)ccc(C(=O)N(C(=O)C2CC=CCC2)c2nnnn2C)c1Cl (racemic) [Compound 2-104] | greater than or equal to 90%
COCc1c(S(C)(=O)=O)ccc(C(=O)N(C(=O)C2CC=CC2)c2nnnn2C)c1Cl [Compound 2-106] | greater than or equal to 90%
COCCOCc1c(S(C)(=O)=O)ccc(C(=O)N(C(=O)C2=CCCCC2)c2nnnn2C)c1Cl [Compound 2-270] | greater than or equal to 90%
CCCOc1c(S(C)(=O)=O)ccc(C(=O)N(C(=O)/C=C/c2ccccc2)c2nnnn2C)c1C [Compound 1-296] | greater than or equal to 90%
COCCOCc1c(S(C)(=O)=O)ccc(C(=O)N(C(=O)/C=C/c2ccccc2)c2nnnn2C)c1Cl [Compound 1-53] | greater than or equal to 90%
COCc1c(S(C)(=O)=O)ccc(C(=O)N(C(=O)C2=CCCC2)c2nnnn2C)c1Cl [Compound 2-105] | greater than or equal to 90%
Cc1c(C(=O)N(C(=O)C2=CCCCC2)c2nnnn2C)ccc(S(C)(=O)=O)c1C [Compound 2-43] | greater than or equal to 90%
Cn1nnnc1N(C(=O)C1=CCCCC1)C(=O)c1ccc(S(C)(=O)=O)cc1Cl [Compound 2-269] | greater than or equal to 90%
COCc1c(S(C)(=O)=O)ccc(C(=O)N(C(=O)/C=C/c2ccccc2)c2nnnn2C)c1Cl [Compound 1-24] | greater than or equal to 90%
Cn1nnnc1N(C(=O)C1=CCCCC1)C(=O)c1ccc(Cl)cc1Cl [Compound 2-268] | greater than or equal to 90%
COc1c(S(C)(=O)=O)ccc(C(=O)N(C(=O)/C=C/c2ccccc2)c2nnnn2C)c1C [Compound 1-95] | greater than or equal to 90%
Cn1nnnc1N(C(=O)/C=C/c1ccccc1)C(=O)c1ccc(S(C)(=O)=O)cc1Cl [Compound 1-17] | greater than or equal to 90%
Cn1nnnc1N(C(=O)C1=CCCC1)C(=O)c1ccc(C(F)(F)F)cc1S(C)(=O)=O [Compound 2-266] | greater than or equal to 90%
Cn1nnnc1N(C(=O)C1=CCCCC1)C(=O)c1ccc(Cl)cc1[N+](=O)[O-] [Compound 2-267] | greater than or equal to 90%

tested on: piemarker; assay: Herbicidal activity, post-emergence stem and leaf spray, greenhouse: piemarker control; format: in vivo; conditions: dose 18.75 g a.i./hm^2; after emergence
Method: Seeds of broadleaf weeds (zinnia and piemarker) or grassy weeds (green bristlegrass and barnyard grass) are respectively sown in a paper cup having a diameter of 7 cm and containing nutrient soil; after sowing, the seeds are covered with 1 cm of soil; the soil is pressed and watered, and then the seeds are cultivated in a greenhouse according to a conventional method; and stems and leaves are sprayed after 2-3 leaf stage of the weeds.
After the original medicinal acetone was dissolved, the test requires to use 1% of Tween 80 to stand in running water to prepare the solution to be tested with a required concentration. According to the design dose of the test, spray treatment was carried out on a track-type crop sprayer (designed and produced by British Engineer Research Ltd.) (spray pressure is 1.95 kg/cm^2, spray volume is 50 L/hm^2 and track speed is 1.48 km/h). The test was repeated for three times. The test material was treated and then placed in an operation hall. The medicinal liquid was naturally dried in the shade, and then was placed in a greenhouse and managed according to the conventional method, The response of the weeds to the drug was observed and recorded, After treatment, the control effects of the test drug on the weeds were visually inspected regularly, expressed by 0-100%. “0” represents no control effect and “100%” represents complete killing.
According to the above test method, part of the compounds of the formula I and KC are selected for activity test of controlling the piemarker. […]

Compound | control effect on piemarker
COCc1c(S(C)(=O)=O)ccc(C(=O)N(C(=O)C2=CCCCC2)c2nnnn2C)c1Cl [Compound 2-103] | greater than or equal to 70%
Cn1nnnc1N(C(=O)/C=C/c1ccccc1)C(=O)c1ccc(C(F)(F)F)cc1S(C)(=O)=O [Compound 1-1] | greater than or equal to 70%
Cn1nnnc1N(C(=O)/C=C/c1ccc2c(c1)OCO2)C(=O)c1ccc(C(F)(F)F)cc1S(C)(=O)=O [Compound 1-8] | greater than or equal to 70%
Cc1c(S(C)(=O)=O)ccc(C(=O)N(C(=O)/C=C/c2ccccc2)c2nnnn2C)c1Cl [Compound 1-19] | greater than or equal to 70%
COCc1c(S(C)(=O)=O)ccc(C(=O)N(C(=O)/C=C/c2ccccc2)c2nnnn2C)c1Cl [Compound 1-24] | greater than or equal to 70%

From patent US12319663B2, “Alkene-containing amide compound and application thereof” (SHENYANG SINOCHEM AGROCHEMICALS R&D CO., LTD., priority 2019, dated 2025)
